Source: patent US4724229A, “Arg-arg-arg-vasopressin antagonists” (Smithkline Beckman Corporation, priority 1986, dated 1988)
At least one peptide structure holds a part that was inferred or is arguable (an end, a ring closure or a residue). Numbered stars: 1 amine (or outer) side, 2 acyl side, 3 side chain; on linkers, the order of the positions; unused ones are H or OH. Bridge positions count the residues as written; N and C are the ends. Square brackets hold non-standard residues; d marks the D form. Peptide text beside a SMILES is read from it. X1 = O=C(CC1(S[*:2])CCCCC1)[*:1]

Tested on: hydropenic rat
Experiment: Hydropenic Rat Screen (anti-ADH activity in vivo)
Settings: dose required to decrease urine osmolality in rats from hydropenic levels (1500 mOsm/kg H2O) to 300 mOsm/kg H2O; intraperitoneally

Row | Compound | ED300
1 | CCOc1ccc(C[C@H]2NC(=O)CC3(CCCCC3)SSC[C@@H](C(=O)N[C@@H](CCCNC(=N)N)C(=O)N[C@@H](CCCNC(=N)N)C(=O)N[C@@H](CCCNC(=N)N)C(N)=O)NC(=O)[C@H](CC(N)=O)NC(=O)[C@H](C(C)C)NC(=O)[C@H](Cc3ccccc3)NC2=O)cc1 [No. 1, [1-(β-mercapto-β,β-cyclopentamethylenepropionic acid)-2-(O-ethyl)-D-tyrosine-4-valine-7-arginine-8-arginine-9-arginine]-vasopressin] ([dY](Et)FVNCRRR-NH2; linker N-5 via X1) | 22.1 µg/mL
2 | CCOc1ccc(C[C@H]2NC(=O)CC3(CCCCC3)SSC[C@@H](C(=O)N[C@@H](CCCNC(=N)N)C(=O)N[C@@H](CCCNC(=N)N)C(N)=O)NC(=O)[C@H](CC(N)=O)NC(=O)[C@H](C(C)C)NC(=O)[C@H](Cc3ccccc3)NC2=O)cc1 [compound 3] ([dY](Et)FVNCRR-NH2; linker N-5 via X1) | 7.2 µg/mL
